Binding data for 2 molecules are collected here from paper PMC6098130.

Sequences of proteins named here, by UniProt entry; tags and fusion partners are left off.
UniProt O08573: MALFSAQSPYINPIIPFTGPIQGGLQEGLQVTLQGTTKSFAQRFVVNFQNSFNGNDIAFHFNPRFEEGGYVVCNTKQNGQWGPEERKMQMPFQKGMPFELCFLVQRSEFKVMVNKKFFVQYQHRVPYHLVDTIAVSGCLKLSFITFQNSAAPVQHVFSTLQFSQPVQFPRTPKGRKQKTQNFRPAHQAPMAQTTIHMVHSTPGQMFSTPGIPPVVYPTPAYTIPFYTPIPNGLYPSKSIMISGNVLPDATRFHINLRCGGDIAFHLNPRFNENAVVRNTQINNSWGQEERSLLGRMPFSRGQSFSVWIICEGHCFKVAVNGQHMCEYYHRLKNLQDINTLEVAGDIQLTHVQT

Assay [1] deals with T1, CD45 (Ptprc) (mouse (endogenous in primary B cells)) (UniProt P06800).
T1 sequence: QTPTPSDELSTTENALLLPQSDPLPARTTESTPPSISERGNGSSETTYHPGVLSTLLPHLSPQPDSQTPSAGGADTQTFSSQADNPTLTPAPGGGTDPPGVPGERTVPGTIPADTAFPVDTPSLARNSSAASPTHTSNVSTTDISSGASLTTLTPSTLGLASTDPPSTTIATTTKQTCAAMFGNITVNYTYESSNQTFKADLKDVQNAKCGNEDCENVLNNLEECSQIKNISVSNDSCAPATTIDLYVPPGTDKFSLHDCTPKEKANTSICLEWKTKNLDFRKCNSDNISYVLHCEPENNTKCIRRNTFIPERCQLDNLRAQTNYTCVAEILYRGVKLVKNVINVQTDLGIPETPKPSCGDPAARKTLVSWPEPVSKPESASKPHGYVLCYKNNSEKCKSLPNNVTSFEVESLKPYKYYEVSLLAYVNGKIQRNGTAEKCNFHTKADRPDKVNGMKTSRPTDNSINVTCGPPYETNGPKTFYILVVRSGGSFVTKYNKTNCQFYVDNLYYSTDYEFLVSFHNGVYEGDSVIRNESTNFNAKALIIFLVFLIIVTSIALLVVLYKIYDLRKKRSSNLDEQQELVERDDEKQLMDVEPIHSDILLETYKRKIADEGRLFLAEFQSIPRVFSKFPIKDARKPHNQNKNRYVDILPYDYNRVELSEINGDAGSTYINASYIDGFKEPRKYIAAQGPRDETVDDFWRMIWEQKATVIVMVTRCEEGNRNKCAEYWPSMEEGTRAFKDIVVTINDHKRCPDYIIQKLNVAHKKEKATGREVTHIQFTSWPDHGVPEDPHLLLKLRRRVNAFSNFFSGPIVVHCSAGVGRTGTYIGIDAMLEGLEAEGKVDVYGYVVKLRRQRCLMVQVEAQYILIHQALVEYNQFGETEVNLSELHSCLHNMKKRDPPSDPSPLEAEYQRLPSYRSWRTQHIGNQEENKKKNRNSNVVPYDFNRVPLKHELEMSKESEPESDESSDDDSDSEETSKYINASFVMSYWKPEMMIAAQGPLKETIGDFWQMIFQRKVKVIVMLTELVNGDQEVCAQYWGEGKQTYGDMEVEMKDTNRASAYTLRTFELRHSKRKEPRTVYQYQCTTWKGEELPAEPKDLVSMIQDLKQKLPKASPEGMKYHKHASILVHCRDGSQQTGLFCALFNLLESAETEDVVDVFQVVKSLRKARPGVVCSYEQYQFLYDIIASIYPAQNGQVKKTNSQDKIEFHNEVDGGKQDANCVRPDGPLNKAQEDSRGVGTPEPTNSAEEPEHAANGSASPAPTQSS
Description: far-Western; 25 µg whole-cell RIPA lysate resolved by 10% SDS-PAGE, transferred to PVDF, renatured in guanidine-HCl 6-0 M; 5 µg/mL FLAG-tagged rGal9 overnight at 4 °C; detected with anti-FLAG M2; reference blots for CD45 and IgM; only the binder purified.

Assay [2] concerns the target FLAG-tagged recombinant galectin-9 (UniProt O08573). The assay is described as follows: pull-down; 10 µg FLAG-tagged rGal9 on anti-FLAG beads; RIPA lysate (stringent lysis) of B cells from Gal9-KO mice, 3 h at 4 °C, with or without 50 mM D-lactose; elution with 200 mM D-lactose; immunoblot for CD45 and IgM; only the target purified. (In general: A western blot detects proteins with antibodies after separation by electrophoresis.)

Results are given in words; binding and its absence hold for the method and conditions named. For some assays here: In cells and extracts the contact can be indirect. Some binding calls cover weakened binding; strength is not graded here.

Turning to “FLAG-tagged recombinant galectin-9 (from UniProt O08573 1-353)”, in assay [1], the binding result was “binds”.

B1: CD45 (Ptprc) (protein, UniProt P06800 26-1293)
chain: T1 sequence
Regarding B1, the binding result in assay [2] is listed as “binds”.
